Patent US12091402B2 (Avilar Therapeutics, Inc., priority 2021, dated 2024)

Assay: general procedure: Fmoc solid-phase peptide synthesis; AM Resin (0.30 mmol/g); CTC Resin; HBTU/DIEA
Conditions: oxidative folding step

Row | Substance | final purity (method not given)
1 | 3-((2S,5aR,11S,14R,17S,20S,23S,26S,32S,35S,38S,41S,44R,47S,49aS)-35-((1H-imidazol-5-yl)methyl)-17,38-bis((1H-indol-3-yl)methyl)-2-amino-47-(carboxymethyl)-11-((R)-1-hydroxyethyl)-23,32-diisobutyl-20-isopropyl-41-methyl-5,10,13,16,19,22,25,28,31,34,37,40,43,46,49-pentadecaoxooctatetracontahydro-5H-14,44-(methanodithiomethano)dipyrrolo[1,2-a:1′,2′-d][1,4,7,10,13,16,19,22,25,28,31,34,37,40,43]pentadecaazacyclopentatetracontin-26-yl)propanoic acid | 85% purity

Same assay, conditions: whole synthesis

Row | Substance | final purity (method not given) | isolated yield
2 | 2-((2S,5aR,11S,14R,17S,20S,23S,26S,32S,35S,38S,41S,44R,47S,49aS)-35-((1H-imidazol-5-yl)methyl)-17,38-bis((1H-indol-3-yl)methyl)-2-amino-11-((R)-1-hydroxyethyl)-23,32-diisobutyl-20-isopropyl-26,41-dimethyl-5,10,13,16,19,22,25,28,31,34,37,40,43,46,49-pentadecaoxooctatetracontahydro-5H-14,44-(methanodithiomethano)dipyrrolo[1,2-a:1′,2′-d][1,4,7,10,13,16,19,22,25,28,31,34,37,40,43]pentadecaazacyclopentatetracontin-47-yl)acetamide | 97.0% purity | 18.6% yield
3 | 2-((2S,5aR,11S,14R,17S,20S,23S,26S,32S,35S,38S,41S,44R,47S,49aS)-35-((1H-imidazol-5-yl)methyl)-17,38-bis((1H-indol-3-yl)methyl)-2-amino-11-((R)-1-hydroxyethyl)-23,32-diisobutyl-20-isopropyl-26,41-dimethyl-5,10,13,16,19,22,25,28,31,34,37,40,43,46,49-pentadecaoxooctatetracontahydro-5H-14,44-(methanodithiomethano)dipyrrolo[1,2-a:1′,2′-d][1,4,7,10,13,16,19,22,25,28,31,34,37,40,43]pentadecaazacyclopentatetracontin-47-yl)acetic acid | 95.0% purity | 25.5% yield
4 | 2-((2S,5aR,11S,14R,17S,20S,23S,26S,32S,35S,38S,41S,44R,47S,49aS)-35-((1H-imidazol-5-yl)methyl)-17,38-bis((1H-indol-3-yl)methyl)-2-amino-11-((R)-1-hydroxyethyl)-23,32-diisobutyl-20-isopropyl-41-methyl-26-(3-(methylamino)-3-oxopropyl)-5,10,13,16,19,22,25,28,31,34,37,40,43,46,49-pentadecaoxooctatetracontahydro-5H-14,44-(methanodithiomethano)dipyrrolo[1,2-a:1′,2′-d] [1,4,7,10,13,16,19,22,25,28,31,34,37,40,43]pentadecaazacyclopentatetracontin-47-yl)acetic acid | 95.4% purity | 16.8% yield
5 | 2-((2S,5aR,11S,14R,17S,20S,23S,26S,32S,35S,38S,41S,44R,47S,49aS)-35-((1H-imidazol-5-yl)methyl)-17,38-bis((1H-indol-3-yl)methyl)-2-amino-26-(3-(dimethylamino)-3-oxopropyl)-11-((R)-1-hydroxyethyl)-23,32-diisobutyl-20-isopropyl-41-methyl-5,10,13,16,19,22,25,28,31,34,37,40,43,46,49-pentadecaoxooctatetracontahydro-5H-14,44-(methanodithiomethano)dipyrrolo[1,2-a:1′,2′-d][1,4,7,10,13,16,19,22,25,28,31,34,37,40,43]pentadecaazacyclopentatetracontin-47-yl)acetic acid | 96.2% purity | 13.2% yield
6 | 2-((2S,5aR,11S,14R,17S,20S,23S,26S,32S,35S,38S,41S,44R,47S,49aS)-35-((1H-imidazol-5-yl)methyl)-17,38-bis((1H-indol-3-yl)methyl)-2-amino-26-(3-amino-3-oxopropyl)-11-((R)-1-hydroxyethyl)-23,32-diisobutyl-20-isopropyl-41-methyl-5,10,13,16,19,22,25,28,31,34,37,40,43,46,49-pentadecaoxooctatetracontahydro-5H-14,44-(methanodithiomethano)dipyrrolo[1,2-a:1′,2′-d][1,4,7,10,13,16,19,22,25,28,31,34,37,40,43]pentadecaazacyclopentatetracontin-47-yl)acetic acid | 96.2% purity | 25.7% yield
7 | 3-((2S,5aR,11S,14R,17R,20S,23S,26S,32S,35S,38S,41S,44R,47S,49aS)-35-((1H-imidazol-5-yl)methyl)-17,38-bis((1H-indol-3-yl)methyl)-2-amino-47-(carboxymethyl)-11-((R)-1-hydroxyethyl)-23,32-diisobutyl-20-isopropyl-41-methyl-5,10,13,16,19,22,25,28,31,34,37,40,43,46,49-pentadecaoxooctatetracontahydro-5H-14,44-(methanodithiomethano)dipyrrolo[1,2-a:1′,2′-d][1,4,7,10,13,16,19,22,25,28,31,34,37,40,43]pentadecaazacyclopentatetracontin-26-yl)propanoic acid | 95.6% purity | 20.9% yield
8 | 3-((2S,5aR,11S,14R,17S,20S,23S,26S,32S,35S,38S,41S,44R,47S,49aS)-35-((1H-imidazol-5-yl)methyl)-17,38-bis((1H-indol-3-yl)methyl)-2-amino-11-((R)-1-hydroxyethyl)-23,32-diisobutyl-20-isopropyl-41,47-dimethyl-5,10,13,16,19,22,25,28,31,34,37,40,43,46,49-pentadecaoxooctatetracontahydro-5H-14,44-(methanodithiomethano)dipyrrolo[1,2-a:1′,2′d][1,4,7,10,13,16,19,22,25,28,31,34,37,40,43]pentadecaazacyclopentatetracontin-26-yl)-N,N-dimethylpropanamide (PACAWHLGQLVWCTP; D-residues; cyclised or stapled) | 94.4% purity | 6.4% yield
9 | 3-((2S,5aR,11S,14R,17S,20S,23S,26S,32S,35S,38S,41S,44R,47S,49aS)-35-((1H-imidazol-5-yl)methyl)-17,38-bis((1H-indol-3-yl)methyl)-2-amino-11-((R)-1-hydroxyethyl)-41-(hydroxymethyl)-23,32-diisobutyl-20-isopropyl-47-methyl-5,10,13,16,19,22,25,28,31,34,37,40,43,46,49-pentadecaoxooctatetracontahydro-5H-14,44-(methanodithiomethano)dipyrrolo[1,2-a:1′,2′-d][1,4,7,10,13,16,19,22,25,28,31,34,37,40,43]pentadecaazacyclopentatetracontin-26-yl)propanoic acid (PACSWHLGELVWCTP; D-residues; cyclised or stapled) | 96.1% purity | 16.4% yield
10 | 3-((2S,5aR,11S,14R,17S,20S,23S,26S,32S,35S,38S,41S,44R,47S,49aS)-35-((1H-imidazol-5-yl)methyl)-17,38-bis((1H-indol-3-yl)methyl)-2-amino-47-(2-amino-2-oxoethyl)-11-((R)-1-hydroxyethyl)-23,32-diisobutyl-20-isopropyl-41-methyl-5,10,13,16,19,22,25,28,31,34,37,40,43,46,49-pentadecaoxooctatetracontahydro-5H-14,44-(methanodithiomethano)dipyrrolo[1,2-a:1′,2′-d][1,4,7,10,13,16,19,22,25,28,31,34,37,40,43]pentadecaazacyclopentatetracontin-26-yl)-N,N-dimethylpropanamide | 96.9% purity | 22.0% yield
11 | 3-((2S,5aR,11S,14R,17S,20S,23S,26S,32S,35S,38S,41S,44R,47S,49aS)-35-((1H-imidazol-5-yl)methyl)-17,38-bis((1H-indol-3-yl)methyl)-2-amino-47-(2-amino-2-oxoethyl)-11-((R)-1-hydroxyethyl)-23,32-diisobutyl-20-isopropyl-41-methyl-5,10,13,16,19,22,25,28,31,34,37,40,43,46,49-pentadecaoxooctatetracontahydro-5H-14,44-(methanodithiomethano)dipyrrolo[1,2-a:1′,2′-d][1,4,7,10,13,16,19,22,25,28,31,34,37,40,43]pentadecaazacyclopentatetracontin-26-yl)propanoic acid | 97.5% purity | 26.0% yield
12 | 3-((2S,5aR,11S,14R,17S,20S,23S,26S,32S,35S,38S,41S,44R,47S,49aS)-35-((1H-imidazol-5-yl)methyl)-17,38-bis((1H-indol-3-yl)methyl)-2-amino-47-(carboxymethyl)-11,41-bis((R)-1-hydroxyethyl)-23,32-diisobutyl-20-isopropyl-5,10,13,16,19,22,25,28,31,34,37,40,43,46,49-pentadecaoxooctatetracontahydro-5H-14,44-(methanodithiomethano)dipyrrolo[1,2-a:1′,2′-d][1,4,7,10,13,16,19,22,25,28,31,34,37,40,43]pentadecaazacyclopentatetracontin-26-yl)propanoic acid (PDCTWHLGELVWCTP; D-residues; cyclised or stapled) | 96.9% purity | 30.5% yield
13 | 3-((2S,5aR,11S,14R,17S,20S,23S,26S,32S,35S,38S,41S,44R,47S,49aS)-35-((1H-imidazol-5-yl)methyl)-17,38-bis((1H-indol-3-yl)methyl)-2-amino-47-(carboxymethyl)-11-((R)-1-hydroxyethyl)-41-(2-hydroxyethyl)-23,32-diisobutyl-20-isopropyl-5,10,13,16,19,22,25,28,31,34,37,40,43,46,49-pentadecaoxooctatetracontahydro-5H-14,44-(methanodithiomethano)dipyrrolo[1,2-a:1′,2′-d][1,4,7,10,13,16,19,22,25,28,31,34,37,40,43]pentadecaazacyclopentatetracontin-26-yl)propanoic acid | 98.0% purity | 18.3% yield

Same assay, conditions: whole synthesis, scale 20 mmol*4, TFA salt

Row | Substance | isolated mass
14 | 3-((2S,5aR,11S,14R,17S,20S,23S,26S,32S,35S,38S,41S,44R,47S,49aS)-35-((1H-imidazol-5-yl)methyl)-17,38-bis((1H-indol-3-yl)methyl)-2-amino-47-(carboxymethyl)-11-((R)-1-hydroxyethyl)-23,32-diisobutyl-20-isopropyl-41-methyl-5,10,13,16,19,22,25,28,31,34,37,40,43,46,49-pentadecaoxooctatetracontahydro-5H-14,44-(methanodithiomethano)dipyrrolo[1,2-a:1′,2′-d][1,4,7,10,13,16,19,22,25,28,31,34,37,40,43]pentadecaazacyclopentatetracontin-26-yl)propanoic acid | 25.00 g

Same assay, conditions: whole synthesis, scale 20 mmol, TFA salt

Row | Substance | final purity (method not given) | isolated mass | isolated yield
15 | 3-((2S,5aR,11S,14R,17S,20S,23S,26S,32S,35S,38S,41S,44R,47S,49aS)-35-((1H-imidazol-5-yl)methyl)-17,38-bis((1H-indol-3-yl)methyl)-2-amino-47-(carboxymethyl)-11-((R)-1-hydroxyethyl)-23,32-diisobutyl-20-isopropyl-41-methyl-5,10,13,16,19,22,25,28,31,34,37,40,43,46,49-pentadecaoxooctatetracontahydro-5H-14,44-(methanodithiomethano)dipyrrolo[1,2-a:1′,2′-d][1,4,7,10,13,16,19,22,25,28,31,34,37,40,43]pentadecaazacyclopentatetracontin-26-yl)propanoic acid | 88.3% purity | 6.25 g | 18.1% yield
